According to paper PMC10004634 (PLOS ONE, 2023):

Test system: TMD8 xenograft tumor
Assay: Gene expression microarray analysis of TMD8 xenograft tumors
Settings: geometric mean

## CC#CC(=O)N1CC[C@@H](n2c(=O)n(-c3ccc(Oc4ccccc4)cc3)c3c(N)ncnc32)C1 [Tirabrutinib]
3 mg/kg
  tirabrutinib 3 (mean) expression value ALOX5: 14465.9
  tirabrutinib 3 (mean) expression value CAMK2B: 502.5
  tirabrutinib 3 (mean) expression value ELL2: 1080.8
  tirabrutinib 3 (mean) expression value EMP2: 299.5
  tirabrutinib 3 (mean) expression value MYBPH: 561.7
10 mg/kg
  tirabrutinib 10 (mean) expression value ATF3: 1953.7
  tirabrutinib 10 (mean) expression value DKFZp686O1327: 134.0
  tirabrutinib 10 (mean) expression value NFATC1: 619.0
  tirabrutinib 10 (mean) expression value TNFRSF17: 64.9
  tirabrutinib 10 (mean) expression value ZNF831: 43.6
